Measurements from the supplement of paper PMC10626197.

Tested on: MCF7
Assay: cell viability relative to DMSO control (raw), single agent; higher = more viable cells
Settings: exposure time 72 h
Method: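 MCF7 cells, 1000 cells/well in 384-well plates, single-agent wells of drug 2 (drug 1 at 0 µM) within 6x6 combination matrices (1:3 serial dilutions), 72 h at 37 °C. Viability read by CellTiter-Glo luminescence, 3 biological replicates. Normalised viability sets 0% at the highest doxorubicin dose and 100% at the 0,0 µM control per combination.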

Cc1c(-c2ccc(O)cc2)n(Cc2ccc(OCCN3CCCCCC3)cc2)c2ccc(O)cc12 [Bazedoxifene (acetate)]
cell viability [%]
Settings	0.123457 µM	0.37037 µM	1.11111 µM	3.33333 µM	10 µM
plate partner (at 0 µM): Mitoxantrone	82.9	80.8	89	87.5	6.07
plate partner (at 0 µM): Vincristine	103	105	104	83.4	7.17

CCC(=O)OCC(=O)[C@@]1(OC(=O)CC)[C@@H](C)C[C@H]2[C@@H]3CCC4=CC(=O)C=C[C@]4(C)[C@@]3(F)[C@@H](O)C[C@@]21C [Betamethasone dipropionate]
plate partner (at 0 µM): Ruxolitinib
Settings	cell viability [%]
0.037037 µM	111
0.111111 µM	107
0.333333 µM	113
1 µM	112
3 µM	108

CC(C)NCC(O)COc1ccc(CCOCC2CC2)cc1 (stereo not given) [Betaxolol (hydrochloride)]
plate partner (at 0 µM): Topotecan
Settings	cell viability [%]
0.308642 µM	101
0.925926 µM	102
2.77778 µM	103
8.33333 µM	103
25 µM	102

C[C@@H](NCCCc1cccc(C(F)(F)F)c1)c1cccc2ccccc12 [Cinacalcet (hydrochloride)]
plate partner (at 0 µM): Pralatrexate
Settings	cell viability [%]
0.123457 µM	98.2
0.37037 µM	103
1.11111 µM	96
3.33333 µM	63.3
10 µM	7.95

CCOC(=O)C(C)(C)Oc1ccc(Cl)cc1 [Clofibrate]
plate partner (at 0 µM): Crizotinib
Settings	cell viability [%]
0.0308642 µM	107
0.0925926 µM	102
0.277778 µM	108
0.833333 µM	111
2.5 µM	111

CN(C)CCCN1c2ccccc2CCc2ccc(Cl)cc21 [Clomipramine (hydrochloride)]
cell viability [%]
Settings	0.123457 µM	0.37037 µM	1.11111 µM	3.33333 µM	10 µM
plate partner (at 0 µM): Carmustine	99.1	108	109	111	83.3
plate partner (at 0 µM): Erlotinib	110	119	114	109	90.3
plate partner (at 0 µM): Pazopanib	87.4	80.4	85.1	79.2	70.7

Clc1cccc(Cl)c1NC1=NCCN1 [Clonidine]
plate partner (at 0 µM): Mitoxantrone
Settings	cell viability [%]
0.0123457 µM	93.2
0.037037 µM	101
0.111111 µM	96.2
0.333333 µM	96
1 µM	93.6

CN1CCN(C2=Nc3cc(Cl)ccc3Nc3ccccc32)CC1 [Clozapine]
cell viability [%]
Settings	0.123457 µM	0.37037 µM	1.11111 µM	3.33333 µM	10 µM
plate partner (at 0 µM): Vinblastine	105	102	96.8	104	101
plate partner (at 0 µM): Vincristine	97.6	89.5	95.5	94.7	87.2

COc1cc2ncnc(Nc3ccc(F)c(Cl)c3)c2cc1NC(=O)/C=C/CN1CCCCC1 [Dacomitinib]
cell viability [%]
Settings	0.246914 µM	0.740741 µM	2.22222 µM	6.66667 µM	20 µM
plate partner (at 0 µM): Cabazitaxel	101	91.7	95.1	37.4	2.74
plate partner (at 0 µM): Pazopanib	96.5	97.6	89.4	35.6	0.871
plate partner (at 0 µM): ixabepilone	101	102	90.3	33.2	0.896

NCCc1ccc(O)c(O)c1 [Dopamine HCl]
plate partner (at 0 µM): Letrozole
Settings	cell viability [%]
0.123457 µM	119
0.37037 µM	112
1.11111 µM	114
3.33333 µM	108
10 µM	105.8

C[C@]12C=CC(=O)N[C@@H]1CC[C@@H]1[C@@H]2CC[C@]2(C)[C@@H](C(=O)Nc3cc(C(F)(F)F)ccc3C(F)(F)F)CC[C@@H]12 [Dutasteride]
plate partner (at 0 µM): Mitoxantrone
Settings	cell viability [%]
0.617284 µM	97.7
1.85185 µM	99.1
5.55556 µM	93.9
16.6667 µM	76.6
50 µM	43.3

Nc1ccccc1NC(=O)c1ccc(CNC(=O)OCc2cccnc2)cc1 [Entinostat]
plate partner (at 0 µM): Abiraterone
Settings	cell viability [%]
0.0740741 µM	98
0.222222 µM	96.3
0.666667 µM	87.5
2 µM	68.5
6 µM	37.5

CNC[C@H](O)c1ccc(O)c(O)c1 [Epinephrine HCl]
plate partner (at 0 µM): Vandetanib
Settings	cell viability [%]
0.0740741 µM	97.3
0.222222 µM	108
0.666667 µM	101
2 µM	94.8
6 µM	69.1

Cc1ncc(NC(=O)c2ccc(CN3CCN(C)CC3)c(C(F)(F)F)c2)cc1Nc1nccc(-c2cccnc2)n1 [Flumatinib (mesylate)]
cell viability [%]
Settings	plate partner (at 0 µM): Cabazitaxel	plate partner (at 0 µM): Imatinib	plate partner (at 0 µM): Lapatinib	plate partner (at 0 µM): Methotrexate	plate partner (at 0 µM): Mitoxantrone	plate partner (at 0 µM): Pazopanib	plate partner (at 0 µM): Vinblastine	plate partner (at 0 µM): Vincristine
0.617284 µM	102	103	88.8	96.2	100	90.7	87.5	107
1.85185 µM	106	102	96	95.1	102	91	80.3	95.8
5.55556 µM	105	97.3	98.8	96	99.8	94.9	88.2	84.7
16.6667 µM	2.5	1.19	0.876	1.18	3.84	1.36	4.26	4.97
50 µM	0.824	0.647	0.4325	0.443	0.82	0.386	1.71	1.64

COc1cc2c(Oc3ccc(NC(=O)C4(C(=O)Nc5ccc(F)cc5)CC4)cc3F)ccnc2cc1OCCCN1CCOCC1 [Foretinib]
cell viability [%]
Settings	0.348765 µM	1.0463 µM	3.13889 µM	9.41667 µM	28.25 µM
plate partner (at 0 µM): Cabazitaxel	103	88.4	59.6	20.5	1.29
plate partner (at 0: 5-Fluorouracil µM	83.6	61.7	30.6	4.72	2.47

NS(=O)(=O)c1cc2c(cc1Cl)NCNS2(=O)=O [Hydrochlorothiazide]
plate partner (at 0 µM): Gefitinib
Settings	cell viability [%]
0.0246914 µM	113
0.0740741 µM	115
0.222222 µM	113
0.666667 µM	106
2 µM	107

N#CCC1(n2cc(-c3ncnc4[nH]ccc34)cn2)CN(C2CCN(C(=O)c3ccnc(C(F)(F)F)c3F)CC2)C1 [Itacitinib]
cell viability [%]
Settings	0.185185 µM	0.555556 µM	1.66667 µM	5 µM	15 µM
plate partner (at 0 µM): Cabazitaxel	90.1	93.1	99.5	90.9	91.3
plate partner (at 0 µM): Lenalidomide	112	110	114	115	104

CN(C)C(=O)C(CCN1CCC(O)(c2ccc(Cl)cc2)CC1)(c1ccccc1)c1ccccc1 [Loperamide (hydrochloride)]
cell viability [%]
Settings	0.185185 µM	0.555556 µM	1.66667 µM	5 µM	15 µM
plate partner (at 0 µM): Daunorubicin	94.6	94.7	92.4	90.7	64.8
plate partner (at 0 µM): Vincristine	99.8	101	103	100	70.9

CCOC(=O)N1CCC(=C2c3ccc(Cl)cc3CCc3cccnc32)CC1 [Loratadine]
plate partner (at 0 µM): Zoledronic
Settings	cell viability [%]
0.0617284 µM	107
0.185185 µM	108
0.555556 µM	101
1.66667 µM	94.1
5 µM	91.5

COc1ccccc1OCC(O)COC(N)=O (stereo not given) [Methocarbamol]
plate partner (at 0 µM): Methotrexate
Settings	cell viability [%]
0.0679012 µM	100
0.203704 µM	100
0.611111 µM	102
1.83333 µM	100.1
5.5 µM	102

COc1ccc2cc([C@H](C)C(=O)O)ccc2c1 [Naproxen]
plate partner (at 0 µM): Tamoxifen
Settings	cell viability [%]
0.0925926 µM	97.3
0.277778 µM	97.3
0.833333 µM	98.1
2.5 µM	91.7
7.5 µM	98

Structures can show the parent of a compound that is named as a salt. Several reference drugs read as weak here; read low effects with care.
